The record followed here is publication doi:10.1101/2022.10.05.510978.

Amino acid sequences for entries named in this document (tags omitted).
UniProt Q9BV86: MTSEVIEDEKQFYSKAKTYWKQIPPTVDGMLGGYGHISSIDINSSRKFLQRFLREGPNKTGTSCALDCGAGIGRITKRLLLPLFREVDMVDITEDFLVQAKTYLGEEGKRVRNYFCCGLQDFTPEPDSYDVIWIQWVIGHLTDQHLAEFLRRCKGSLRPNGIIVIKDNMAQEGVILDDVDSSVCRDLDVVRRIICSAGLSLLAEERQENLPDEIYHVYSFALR
UniProt Q5VVY1: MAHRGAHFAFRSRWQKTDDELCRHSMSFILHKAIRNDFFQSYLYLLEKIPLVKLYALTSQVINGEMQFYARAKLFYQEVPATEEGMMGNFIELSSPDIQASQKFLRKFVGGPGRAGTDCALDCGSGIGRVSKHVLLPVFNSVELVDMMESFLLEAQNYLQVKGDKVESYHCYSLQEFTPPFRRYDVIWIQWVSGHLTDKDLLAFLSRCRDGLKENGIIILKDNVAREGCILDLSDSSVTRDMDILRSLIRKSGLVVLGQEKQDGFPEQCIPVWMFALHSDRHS

Read-outs that look alike come from different tables or passages of the source. No constants are given. Whether binding was seen depends on the method and setting. Binding seen in cells or lysates may run through a third protein. Some entries that bind do so weakly or less than the wild type. For part of these data: Tags and fused reporters may be left off the sequences shown.

Holding throughout (test): co-IP
The target of assay [1] is METTL11A-FLAG (human) (UniProt Q9BV86).
For assay [2], the target named is METTL11B-FLAG (human) (UniProt Q5VVY1).
Assay [3] has the same target. The source holds these as a separate data set.
Assay [4] has as its target METTL11A-FLAG (human) (UniProt Q9BV86). The source holds these as a separate data set.

Consider “METTL11B-GFP (from UniProt Q5VVY1 1-283) (enzyme)”, for which the binding entry with METTL11A-FLAG (human) [1] is reported as “binds”.

B1: METTL13-GFP (enzyme, UniProt Q8N6R0 1-699)
chain: MNLLPKSSREFGSVDYWEKFFQQRGKKAFEWYGTYLELCGVLHKYIKPREKVLVIGCGNSELSEQLYDVGYRDIVNIDISEVVIKQMKECNATRRPQMSFLKMDMTQMEFPDASFQVVLDKGTLDAVLTDEEEKTLQQVDRMLAEVGRVLQVGGRYLCISLAQAHILKKAVGHFSREGWMVRVHQVANSQDQVLEAEPQFSLPVFAFIMTKFRPVPGSALQIFELCAQEQRKPVRLESAERLAEAVQERQQYAWLCSQLRRKARLGSVSLDLCDGDTGEPRYTLHVVDSPTVKPSRDNHFAIFIIPQGRETEWLFGMDEGRKQLAASAGFRRLITVALHRGQQYESMDHIQAELSARVMELAPAGMPTQQQVPFLSVGGDIGVRTVQHQDCSPLSGDYVIEDVQGDDKRYFRRLIFLSNRNVVQSEARLLKDVSHKAQKKRKKDRKKQRPADAEDLPAAPGQSIDKSYLCCEHHKAMIAGLALLRNPELLLEIPLALLVVGLGGGSLPLFVHDHFPKSCIDAVEIDPSMLEVATQWFGFSQSDRMKVHIADGLDYIASLAGGGEARPCYDVIMFDVDSKDPTLGMSCPPPAFVEQSFLQKVKSILTPEGVFILNLVCRDLGLKDSVLAGLKAVFPLLYVRRIEGEVNEILFCQLHPEQKLATPELLETAQALERTLRKPGRGWDDTYVLSDMLKTVKIV
For the molecule B1, the binding result in the assay with METTL11B-FLAG (human) [2], with METTL11B-FLAG (human) [3] and with METTL11A-FLAG (human) [4] was “binds” in each case.

B2: METTL13 C-terminal fragment (residues E345-V699)-GFP (domain or fragment, UniProt Q8N6R0 345-699)
chain: ESMDHIQAELSARVMELAPAGMPTQQQVPFLSVGGDIGVRTVQHQDCSPLSGDYVIEDVQGDDKRYFRRLIFLSNRNVVQSEARLLKDVSHKAQKKRKKDRKKQRPADAEDLPAAPGQSIDKSYLCCEHHKAMIAGLALLRNPELLLEIPLALLVVGLGGGSLPLFVHDHFPKSCIDAVEIDPSMLEVATQWFGFSQSDRMKVHIADGLDYIASLAGGGEARPCYDVIMFDVDSKDPTLGMSCPPPAFVEQSFLQKVKSILTPEGVFILNLVCRDLGLKDSVLAGLKAVFPLLYVRRIEGEVNEILFCQLHPEQKLATPELLETAQALERTLRKPGRGWDDTYVLSDMLKTVKIV
In the case of B2, the binding entry in the assay with METTL11A-FLAG (human) [4] is given as “no binding”.

B3: METTL13 N-terminal fragment (residues M1-Y344)-GFP (domain or fragment, UniProt Q8N6R0 1-344)
chain: MNLLPKSSREFGSVDYWEKFFQQRGKKAFEWYGTYLELCGVLHKYIKPREKVLVIGCGNSELSEQLYDVGYRDIVNIDISEVVIKQMKECNATRRPQMSFLKMDMTQMEFPDASFQVVLDKGTLDAVLTDEEEKTLQQVDRMLAEVGRVLQVGGRYLCISLAQAHILKKAVGHFSREGWMVRVHQVANSQDQVLEAEPQFSLPVFAFIMTKFRPVPGSALQIFELCAQEQRKPVRLESAERLAEAVQERQQYAWLCSQLRRKARLGSVSLDLCDGDTGEPRYTLHVVDSPTVKPSRDNHFAIFIIPQGRETEWLFGMDEGRKQLAASAGFRRLITVALHRGQQY
For the molecule B3, the binding result in the assay with METTL11A-FLAG (human) [4] is on record as “binds”.
